Assay results taken from the supplement of paper PMC8007513.
The list shows a part of the results. Repeats are few or missing, and single values can be far off.

The compounds below were run on Saccharomyces cerevisiae BY4743 (assay: growth (OD600) with compound + IPBC relative to untreated control; higher = less growth inhibition). Conditions: compound concentration: 133 uM; IPBC concentration: 0.5 ug/ml; 20 h.
Protocol: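 NMCCC compounds (133 uM) combined with IPBC (0.5 ug/ml) against Saccharomyces cerevisiae BY4743 in YPD, 96-well plates. Growth was read as OD600 at 20 h and expressed as % of the untreated control. Single pass.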

**Q.** For CC(C)N(C(=O)CSc1nnc(-c2cccnc2)n1-c1cccc(C(F)(F)F)c1)C(C)C + CCCCNC(=O)OCC#CI [3-iodo-2-propynyl butylcarbamate (IPBC)], which growth is on record?
**A.** 101%

**Q.** How did the growth turn out when Cc1cc(C(F)(F)F)n2ncc(-c3cccc(Br)c3)c2n1 + CCCCNC(=O)OCC#CI [3-iodo-2-propynyl butylcarbamate (IPBC)] was run?
**A.** 84.8%

**Q.** With CCOC(=O)C(Sc1nnc(C(F)(F)F)n1C)c1ccccc1 (stereo not given) + CCCCNC(=O)OCC#CI [3-iodo-2-propynyl butylcarbamate (IPBC)] as the compound, how does the growth read?
**A.** 110%

**Q.** CCOC(=O)CNC(=O)c1cc(Br)ccc1OCC(C)C + CCCCNC(=O)OCC#CI [3-iodo-2-propynyl butylcarbamate (IPBC)] was tested. Which growth did it give?
**A.** 106%

**Q.** With CCOC(=O)c1nnc2ccc(Cl)nn12 + CCCCNC(=O)OCC#CI [3-iodo-2-propynyl butylcarbamate (IPBC)] as the compound, how does the growth read?
**A.** 85.9%

**Q.** For CCc1sc(C(=O)N(C)Cc2ccc3c(c2)OCO3)cc1C + CCCCNC(=O)OCC#CI [3-iodo-2-propynyl butylcarbamate (IPBC)], which growth is on record?
**A.** 103%

**Q.** With CCOC(=O)C/1=C(\C)OC(=O)/C(=C1)NC(=O)C2=CC=CC=C2OC + CCCCNC(=O)OCC#CI [3-iodo-2-propynyl butylcarbamate (IPBC)] as the compound, how does the growth read?
**A.** 84.3%

**Q.** With COc1ccc(NC(C)=O)cc1NC(=O)CN(C)Cc1ccc(C(C)(C)C)cc1 + CCCCNC(=O)OCC#CI [3-iodo-2-propynyl butylcarbamate (IPBC)] as the compound, how does the growth read?
**A.** 102%

**Q.** For CCN(CC)CCS\C1=N\C(=C(\CC)C(=O)N1C2=CC=CC=C2)O + CCCCNC(=O)OCC#CI [3-iodo-2-propynyl butylcarbamate (IPBC)], which growth is on record?
**A.** 103%

**Q.** CCN(CC)S(=O)(=O)c1ccc(OC)c(NC(=O)CS(=O)(=O)c2ccc(Cl)cc2)c1 + CCCCNC(=O)OCC#CI [3-iodo-2-propynyl butylcarbamate (IPBC)] was tested. Which growth did it give?
**A.** 106%

**Q.** Cc1ccc(OCC(=O)Nc2cc(-c3ccc(F)c(F)c3)no2)cc1C + CCCCNC(=O)OCC#CI [3-iodo-2-propynyl butylcarbamate (IPBC)] was tested. Which growth did it give?
**A.** 93.9%

**Q.** With O=C(CCc1nnc(-c2ccccc2)o1)Nc1ccccc1OC(F)F + CCCCNC(=O)OCC#CI [3-iodo-2-propynyl butylcarbamate (IPBC)] as the compound, how does the growth read?
**A.** 100%

**Q.** How did the growth turn out when COC(=O)c1cc(S(=O)(=O)NCCc2sccc2C)c[nH]1 + CCCCNC(=O)OCC#CI [3-iodo-2-propynyl butylcarbamate (IPBC)] was run?
**A.** 111%

**Q.** For COc1ccc(-c2nnc(SCC(=O)OC(C)C)n2-c2ccccc2)cc1 + CCCCNC(=O)OCC#CI [3-iodo-2-propynyl butylcarbamate (IPBC)], which growth is on record?
**A.** 91.7%

**Q.** With CC(=O)NN1C(=O)c2ccccc2NC1c1cccnc1 (stereo not given) + CCCCNC(=O)OCC#CI [3-iodo-2-propynyl butylcarbamate (IPBC)] as the compound, how does the growth read?
**A.** 91.4%

**Q.** Which growth does the source give for CCC(=O)N1CCc2cc(CNS(=O)(=O)N(C)C)ccc21 + CCCCNC(=O)OCC#CI [3-iodo-2-propynyl butylcarbamate (IPBC)] here?
**A.** 84.6%

**Q.** With Cc1nc(Cl)cc(NCC2COc3ccccc3O2)n1 (stereo not given) + CCCCNC(=O)OCC#CI [3-iodo-2-propynyl butylcarbamate (IPBC)] as the compound, how does the growth read?
**A.** 88.2%

**Q.** For CCC(=O)Nc1sc(CC#N)nc1-c1ccc(C)cc1 + CCCCNC(=O)OCC#CI [3-iodo-2-propynyl butylcarbamate (IPBC)], which growth is on record?
**A.** 92.8%

**Q.** For CCOC(=O)N1CCN(C(=O)Cn2nc(C)c3ccccc32)CC1 + CCCCNC(=O)OCC#CI [3-iodo-2-propynyl butylcarbamate (IPBC)], which growth is on record?
**A.** 94.7%

**Q.** With COc1ccc(N(CCC(N)=O)CC(=O)NC(C)c2ccc3c(c2)OCO3)cc1 (stereo not given) + CCCCNC(=O)OCC#CI [3-iodo-2-propynyl butylcarbamate (IPBC)] as the compound, how does the growth read?
**A.** 103%

**Q.** How did the growth turn out when Fc1ccc(-c2csc(-c3cccs3)n2)cc1 + CCCCNC(=O)OCC#CI [3-iodo-2-propynyl butylcarbamate (IPBC)] was run?
**A.** 89.9%

**Q.** For CCOC(=O)c1ncn(-c2ccc(OC)cc2)c1N + CCCCNC(=O)OCC#CI [3-iodo-2-propynyl butylcarbamate (IPBC)], which growth is on record?
**A.** 80%

**Q.** How did the growth turn out when CCCNC(=O)COC1=CC=C2C(=O)\C(=C(\C)OC2=C1)C3=CC=C(OC)C(=C3)OC + CCCCNC(=O)OCC#CI [3-iodo-2-propynyl butylcarbamate (IPBC)] was run?
**A.** 105%

**Q.** Which growth does the source give for CCN(CC)CCS\C1=N\C(=C/C(=O)N1C2=CC=CC=C2C)O + CCCCNC(=O)OCC#CI [3-iodo-2-propynyl butylcarbamate (IPBC)] here?
**A.** 96.5%

**Q.** For Cc1[nH]c2ccc(C(=O)OCC(=O)c3cc(C)n(C)c3C)cc2c1C + CCCCNC(=O)OCC#CI [3-iodo-2-propynyl butylcarbamate (IPBC)], which growth is on record?
**A.** 77.3%

**Q.** How did the growth turn out when CCC(C(=O)Nc1nnc(CCc2ccc(OC)cc2)s1)c1ccccc1 (stereo not given) + CCCCNC(=O)OCC#CI [3-iodo-2-propynyl butylcarbamate (IPBC)] was run?
**A.** 83.4%

**Q.** For CCCc1nnc(CSc2nnc(-c3ccc(NC(C)=O)cc3)o2)o1 + CCCCNC(=O)OCC#CI [3-iodo-2-propynyl butylcarbamate (IPBC)], which growth is on record?
**A.** 92.5%

**Q.** Which growth does the source give for Cl\C1=C(\CCCC1)C(=O)NC2=CC=C3OCOC3=C2 + CCCCNC(=O)OCC#CI [3-iodo-2-propynyl butylcarbamate (IPBC)] here?
**A.** 97.3%

**Q.** CC(C)CC[N]1C(=CC(=C1C)C(=O)CN2\N=C(/C=C\C2=O)C3=CC=CC=C3)C + CCCCNC(=O)OCC#CI [3-iodo-2-propynyl butylcarbamate (IPBC)] was tested. Which growth did it give?
**A.** 85.6%

**Q.** How did the growth turn out when COCCN(CC(=O)Nc1cccc(C)c1C)C(=O)CCc1c[nH]c2ccccc12 + CCCCNC(=O)OCC#CI [3-iodo-2-propynyl butylcarbamate (IPBC)] was run?
**A.** 115%

**Q.** Which growth does the source give for CCC(=O)N[C@@H](Cc1ccccc1)C(=O)Nc1cc(C)on1 + CCCCNC(=O)OCC#CI [3-iodo-2-propynyl butylcarbamate (IPBC)] here?
**A.** 96.1%

**Q.** For CCCN(CC(=O)NC1=CC=CC=C1OC)C(=O)\C2=C\OCCO2 + CCCCNC(=O)OCC#CI [3-iodo-2-propynyl butylcarbamate (IPBC)], which growth is on record?
**A.** 97%

**Q.** Which growth does the source give for COC(=O)CN\1C(=O)C2=CC=CC=C2\N=C1SC(CC3=CC=C(C)C=C3)C#N (stereo not given) + CCCCNC(=O)OCC#CI [3-iodo-2-propynyl butylcarbamate (IPBC)] here?
**A.** 105%

**Q.** With CCC(Sc1nc2ccc[nH]c-2n1)C(=O)NCC1CCCO1 (stereo not given) + CCCCNC(=O)OCC#CI [3-iodo-2-propynyl butylcarbamate (IPBC)] as the compound, how does the growth read?
**A.** 88%

**Q.** How did the growth turn out when CN(CCO)c1nc2c(c(=O)n(Cc3ccc(Cl)cc3)c(=O)n2C)n1C + CCCCNC(=O)OCC#CI [3-iodo-2-propynyl butylcarbamate (IPBC)] was run?
**A.** 108%

**Q.** Which growth does the source give for Cc1cc(C(=O)COc2ncnc3c(Cl)cc(Cl)cc23)c(C)n1C + CCCCNC(=O)OCC#CI [3-iodo-2-propynyl butylcarbamate (IPBC)] here?
**A.** 101%

**Q.** For Cc1cc(CS(=O)(=O)C(C)C(=O)Nc2ccc(Cl)cc2)on1 (stereo not given) + CCCCNC(=O)OCC#CI [3-iodo-2-propynyl butylcarbamate (IPBC)], which growth is on record?
**A.** 114%

**Q.** How did the growth turn out when CCC(=O)OCC/1=C/C(=O)N/2\N=C(/SC2=N1)C(C)C + CCCCNC(=O)OCC#CI [3-iodo-2-propynyl butylcarbamate (IPBC)] was run?
**A.** 87.6%

**Q.** With CC(C)CNC(=O)CN1\N=N/C2=C(C1=O)C3=C(CC(CC3)C(C)(C)C)S2 (stereo not given) + CCCCNC(=O)OCC#CI [3-iodo-2-propynyl butylcarbamate (IPBC)] as the compound, how does the growth read?
**A.** 92.5%

**Q.** For CCn1c(SCC(=O)N(C)CCOc2ccc(Br)cc2)nnc1C1CC1 + CCCCNC(=O)OCC#CI [3-iodo-2-propynyl butylcarbamate (IPBC)], which growth is on record?
**A.** 96%
